{"sequences": {"note": "By UniProt entry, the sequences of proteins in these tests, tags left out.", "UniProt Q05322": "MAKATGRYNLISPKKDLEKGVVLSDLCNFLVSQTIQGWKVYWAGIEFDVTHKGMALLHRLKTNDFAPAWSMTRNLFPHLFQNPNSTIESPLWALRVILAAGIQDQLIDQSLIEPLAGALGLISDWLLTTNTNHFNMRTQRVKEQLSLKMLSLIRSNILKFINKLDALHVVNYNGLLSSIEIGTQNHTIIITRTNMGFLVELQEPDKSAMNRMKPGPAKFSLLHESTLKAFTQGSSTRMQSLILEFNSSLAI"}, "source": "paper PMC8406168", "molecular_target": "HA-tagged Mayinga EBOV VP24 (Zaire ebolavirus (EBOV), strain Mayinga) (UniProt Q05322)", "assay": "co-IP", "note": "No constants are given. Whether binding was seen depends on the method and setting. Binding seen in cells or lysates may run through a third protein. A result given as binding can be weak or reduced; the word gives no strength.", "data": [{"substance": "emerin (endogenous, BSR-T7 cells) (from UniProt A0A1U7R6B2)", "values": [{"measurement": "binding", "result": "binds"}]}]}
